Source: patent publication US20150232546A1 (THROMBOGENICS, published 2015)
These are yes or no findings as the source states them, for the method shown.

Legend:
Test in all cases: peptide ELISA
[1] = target: T1, human PDGF-C peptide no. 9 (human)
T1 peptide: Biotin-FPHTYPRNTVLVWRL

[2] = target: T2, human PDGF-C peptide no. 27 (human)
T2 peptide: Biotin-EPGFCIHYNIVMPQF

[3] = target: T3, human PDGF-C peptide no. 1 (human)
T3 sequence (peptide, N-terminally biotinylated): ESNLSSKFQFSSNKE

[4] = target: T4, human PDGF-C peptide no. 10 (human)
T4 sequence (peptide, N-terminally biotinylated): PRNTVLVWRLVAVEE

[5] = target: T5, human PDGF-C peptide no. 11 (human)
T5 sequence (peptide, N-terminally biotinylated): LVWRLVAVEENVWIQ

[6] = target: T6, human PDGF-C peptide no. 12 (human)
T6 sequence (peptide, N-terminally biotinylated): VAVEENVWIQLTFDE

[7] = target: T7, human PDGF-C peptide no. 13 (human)
T7 sequence (peptide, N-terminally biotinylated): NVWIQLTFDERFGLE

[8] = target: T8, human PDGF-C peptide no. 14 (human)
T8 sequence (peptide, N-terminally biotinylated): LTFDERFGLEDPEDD

[9] = target: T9, human PDGF-C peptide no. 15 (human)
T9 sequence (peptide, N-terminally biotinylated): RFGLEDPEDDICKYD

[10] = target: T10, human PDGF-C peptide no. 16 (human)
T10 sequence (peptide, N-terminally biotinylated): DPEDDICKYDFVEVE

[11] = target: T11, human PDGF-C peptide no. 17 (human)
T11 sequence (peptide, N-terminally biotinylated): ICKYDFVEVEEPSDG

[12] = target: T12, human PDGF-C peptide no. 19 (human)
T12 sequence (peptide, N-terminally biotinylated): EPSDGTILGRWCGSG

[13] = target: T13, human PDGF-C peptide no. 2 (human)
T13 sequence (peptide, N-terminally biotinylated): SKFQFSSNKEQNGVQ

[14] = target: T14, human PDGF-C peptide no. 20 (human)
T14 sequence (peptide, N-terminally biotinylated): TILGRWCGSGTVPGK

[15] = target: T15, human PDGF-C peptide no. 21 (human)
T15 sequence (peptide, N-terminally biotinylated): WCGSGTVPGKQISKG

[16] = target: T16, human PDGF-C peptide no. 22 (human)
T16 sequence (peptide, N-terminally biotinylated): TVPGKQISKGNQIRI

[17] = target: T17, human PDGF-C peptide no. 24 (human)
T17 sequence (peptide, N-terminally biotinylated): NQIRIRFVSDEYFPS

[18] = target: T18, human PDGF-C peptide no. 25 (human)
T18 sequence (peptide, N-terminally biotinylated): RFVSDEYFPSEPGFC

[19] = target: T19, human PDGF-C peptide no. 29 (human)
T19 sequence (peptide, N-terminally biotinylated): VMPQFTEAVSPSVLP

[20] = target: T20, human PDGF-C peptide no. 3 (human)
T20 sequence (peptide, N-terminally biotinylated): SSNKEQNGVQDPQHE

[21] = target: T21, human PDGF-C peptide no. 30 (human)
T21 sequence (peptide, N-terminally biotinylated): TEAVSPSVLPPSALP

[22] = target: T22, human PDGF-C peptide no. 31 (human)
T22 sequence (peptide, N-terminally biotinylated): PSVLPPSALPLDLLN

[23] = target: T23, human PDGF-C peptide no. 32 (human)
T23 sequence (peptide, N-terminally biotinylated): PSALPLDLLNNAITA

[24] = target: T24, human PDGF-C peptide no. 33 (human)
T24 sequence (peptide, N-terminally biotinylated): LDLLNNAITAFSTLE

[25] = target: T25, human PDGF-C peptide no. 34 (human)
T25 sequence (peptide, N-terminally biotinylated): NAITAFSTLEDLIRY

[26] = target: T26, human PDGF-C peptide no. 35 (human)
T26 sequence (peptide, N-terminally biotinylated): FSTLEDLIRYLEPER

[27] = target: T27, human PDGF-C peptide no. 36 (human)
T27 sequence (peptide, N-terminally biotinylated): DLIRYLEPERWQLDL

[28] = target: T28, human PDGF-C peptide no. 37 (human)
T28 sequence (peptide, N-terminally biotinylated): LEPERWQLDLEDLYR

[29] = target: T29, human PDGF-C peptide no. 40 (human)
T29 sequence (peptide, N-terminally biotinylated): PTWQLLGKAFVFGRK

[30] = target: T30, human PDGF-C peptide no. 41 (human)
T30 sequence (peptide, N-terminally biotinylated): LGKAFVFGRKSRVVD

[31] = target: T31, human PDGF-C peptide no. 42 (human)
T31 sequence (peptide, N-terminally biotinylated): VFGRKSRVVDLNLLT

[32] = target: T32, human PDGF-C peptide no. 43 (human)
T32 sequence (peptide, N-terminally biotinylated): SRVVDLNLLTEEVRL

[33] = target: T33, human PDGF-C peptide no. 44 (human)
T33 sequence (peptide, N-terminally biotinylated): LNLLTEEVRLYSCTP

[34] = target: T34, human PDGF-C peptide no. 45 (human)
T34 sequence (peptide, N-terminally biotinylated): EEVRLYSCTPRNFSV

[35] = target: T35, human PDGF-C peptide no. 47 (human)
T35 sequence (peptide, N-terminally biotinylated): RNFSVSIREELKRTD

[36] = target: T36, human PDGF-C peptide no. 49 (human)
T36 sequence (peptide, N-terminally biotinylated): LKRTDTIFWPGCLLV

[37] = target: T37, human PDGF-C peptide no. 5 (human)
T37 sequence (peptide, N-terminally biotinylated): DPQHERIITVSTNGS

[38] = target: T38, human PDGF-C peptide no. 50 (human)
T38 sequence (peptide, N-terminally biotinylated): TIFWPGCLLVKRCGG

[39] = target: T39, human PDGF-C peptide no. 51 (human)
T39 sequence (peptide, N-terminally biotinylated): GCLLVKRCGGNCACC

[40] = target: T40, human PDGF-C peptide no. 52 (human)
T40 sequence (peptide, N-terminally biotinylated): KRCGGNCACCLHNCN

[41] = target: T41, human PDGF-C peptide no. 53 (human)
T41 sequence (peptide, N-terminally biotinylated): NCACCLHNCNECQCV

[42] = target: T42, human PDGF-C peptide no. 54 (human)
T42 sequence (peptide, N-terminally biotinylated): LHNCNECQCVPSKVT

[43] = target: T43, human PDGF-C peptide no. 56 (human)
T43 sequence (peptide, N-terminally biotinylated): PSKVTKKYHEVLQLR

[44] = target: T44, human PDGF-C peptide no. 57 (human)
T44 sequence (peptide, N-terminally biotinylated): KKYHEVLQLRPKTGV

[45] = target: T45, human PDGF-C peptide no. 60 (human)
T45 sequence (peptide, N-terminally biotinylated): RGLHKSLTDVALEHH

[46] = target: T46, human PDGF-C peptide no. 62 (human)
T46 sequence (peptide, N-terminally biotinylated): ALEHHEECDCVCRGS

[47] = target: T47, human PDGF-C peptide no. 7 (human)
T47 sequence (peptide, N-terminally biotinylated): STNGSIHSPRFPHTY

[48] = target: T48, human PDGF-C peptide no. 8 (human)
T48 sequence (peptide, N-terminally biotinylated): IHSPRFPHTYPRNTV

Measured: binding

B1: anti-PDGF-C antibody 29H1 (antibody, IgG1, V domains shown)
VH: EVQLVESGGDLVKPGGSLKLSCAASGFTFSNYGMSWVRQTPDKRLEWVATIGSGGHYTYYPDSVKGRFTISRDSAKSTLYLQMSSLRSDDTAIYYCARQAPLWDCSDYWGQGTTLTVSS
VL: DVLMTQTPLSLPVSLGDQASISCRSNQSIVHSNGDTYLEWYLQKPGQSPNLLIYKVSNRFSGVPDRFSGSGSGTDFTLKISRVEAEDLGVYYCFQGSHVPPTFGGGTKLEIK
notes: Mouse monoclonal from hybridoma, IgG1, kappa; also called mAb 29H1; hybridoma LMBP 9487CB
no binding (tested: 1 µg/mL): all assays above
